No constants are given. Whether binding was seen depends on the method and setting. Binding seen in cells or lysates may run through a third protein. A result given as binding can be weak or reduced; the word gives no strength.
Target: T1, T-box transcription factor 5 (TBX5), in HEK293T cells for coimmunoprecipitation with SIRT3 (UniProt Q99593)
T1 sequence: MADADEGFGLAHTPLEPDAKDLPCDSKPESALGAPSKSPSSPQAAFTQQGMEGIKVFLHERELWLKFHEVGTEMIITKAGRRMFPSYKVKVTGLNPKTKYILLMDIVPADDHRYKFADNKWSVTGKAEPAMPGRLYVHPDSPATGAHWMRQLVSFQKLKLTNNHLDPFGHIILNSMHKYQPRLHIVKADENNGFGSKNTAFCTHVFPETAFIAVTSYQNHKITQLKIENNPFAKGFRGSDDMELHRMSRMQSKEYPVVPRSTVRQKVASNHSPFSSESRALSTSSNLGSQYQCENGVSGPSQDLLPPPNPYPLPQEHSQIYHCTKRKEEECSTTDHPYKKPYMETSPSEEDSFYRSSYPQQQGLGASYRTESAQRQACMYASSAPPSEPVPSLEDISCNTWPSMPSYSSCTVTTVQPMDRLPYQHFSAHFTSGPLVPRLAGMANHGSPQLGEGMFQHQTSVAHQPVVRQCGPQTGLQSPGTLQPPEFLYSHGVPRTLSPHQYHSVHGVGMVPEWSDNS
Test: co-IP; coimmunoprecipitation of SIRT3 and TBX5 in HEK293T cells

binding: binds
Substance: SIRT3, in HEK293T cells for coimmunoprecipitation with TBX5 (enzyme)

Reference: PMC9130917
